Experimental data reported in PubChem BioAssay AID1347426 (Functional Genomics Laboratory (NCATS/FGL), 2020).
The whole screen tested about 31,000 sequences, of which about 1,400 (4.5%) were called active.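 Rule for the calls: active = median seed-adjusted z-score above 1 or below -1; inactive = the rest.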 This is one part of the list.

Test: Novel Modifiers of Survival Motor Neuron (SMN) Protein: Gene Identification via Genome-wide siRNA Screen;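 note: luminescence tracks full-length SMN protein made from the SMN2 reporter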
Settings: HEK293T SMN2-luciferase reporter, siRNA knockdown, 72 h; actives lie on both sides
Outline: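 Steps: spot 1 pmol siRNA, add Lipofectamine RNAiMax in serum-free DMEM, seed HEK293T SMN2–luciferase reporter cells; incubate 72 h at 37 °C; add ONE-Glo; normalize luminescence to control siRNA, log10, MAD. Candidates: |MAD| > 1.0.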

Sequence	median seed-adjusted z-score
GAACUAAUCAGGAAGCUUATT against DHX40	inactive: -0.75
GGAAUUAGGUCUAACAGCATT against SMG1	inactive: -0.106
GGCUAUCAGUCUGAUGCAATT against ADAMTS5	inactive: -0.306
GCAUAAUCCAUGUACCGAATT against SIPA1L2	inactive: -0.573
GAACUUACCUUACAUAGCUTT against MERTK	inactive: 0.369
CAGAAUCAGCUGGAAGAAATT against BAIAP2	inactive: -0.0497
GUUCAGAUCUUGUUAAGCATT against ZNF271	inactive: 0.484
GCAUCUACGUGGGUAACUUTT against SFRS1	active: -1.66
GGCUAACUAUUUUGUCAGATT against ABHD7	inactive: -0.301
GGACAAAGUACAAACGGCATT against EMX1	inactive: -0.689
CAGUGGACUUCCAACCCAATT against SF3A1	active: -1.09
CAGGACAUCUGGUAUGUUATT against ERN1	inactive: 0.684
UGCUGAAGGAUAACAAGAATT against ACADS	inactive: 0.121
GGUACAAAGCAAUCGGACATT against GUCA2B	inactive: -0.146
GCACUUGCUUUAGCUAUCATT against PSMA4	inactive: 0
GCAUGGAGUCCAACACUGATT against NR2E3	inactive: -0.184
CAUUGUUACUGGAACUGAUTT against KPNA4	inactive: 0.457
GUAGAGAUCUUGUAGAAUATT against ARL6IP2	inactive: 0.274
GGUCUUCAGUCCUCGGAUATT against FAT4	inactive: -0.363
GAAACUUUCAUUACGUAUATT against SNX7	inactive: 0.146
CAACAACUAUUCACCAAAUTT against DNAJB7	inactive: 0.684
CCACGUCUCUGGAGAGUUUTT against ALAD	inactive: 0.0952

Sequence	median seed-adjusted z-score
GAGUGACCAUUCCAACAGATT against DAG1	inactive: -0.104
GCAUGUCCCGAAAACAAGATT against KLF7	inactive: 0.393
GCACAGUUGUCACUACCAUTT against KCNK16	inactive: 0
GCACCUUCACGUUUCGAAATT against GMPR	inactive: 0.0757
CCACUGCUACCACAAGUUUTT against RET	inactive: -0.931
CAAUCGAACGUAAACAACATT against ADD3	inactive: 0.0741
CCGCAGCUGCUAUAAGAGATT against SLC9A10	inactive: -0.0418
GCGUGCUCUUCUUCGCUGATT against B3GAT2	inactive: 0.33
CCUCAAAUGCAGUAUUUUUTT against HMOX1	inactive: 0.45
GGUCGUUUUAGAUCAAUGATT against PPFIA1	inactive: 0.312
GGCUGUGCACGAGAAUCUATT against KIFC3	inactive: 0.54
CAAGAUGCUGGAUAAGGAATT against GYS1	inactive: 0.874
GGAGGGAUCUGGAUUCAUUTT against LCMT2	inactive: -0.0205
CAAUAUCUGCUGUUAGCAATT against SCARB2	inactive: -0.244
GCCUUCUACUCGCUGAACATT against IRX4	inactive: 0.0613
GCUGUUGCUUCAUACGAUUTT against NPM2	inactive: 0.215
GGACGACCACCUAAGAACATT against MGA	inactive: 0.0136
CGGUCACAAUUUGCGCUGATT against ST8SIA3	inactive: -0.848
CGAAGAUCCUAGAGAUGCATT against SFRS7	inactive: 0.44
GGGCGAAAGUAUCAUAUCATT against UGCGL1	inactive: -0.391
CCACCUACAUCGGCAUCUATT against SLC6A9	inactive: 0.241
GGUUGAAAAGGAGUGCAAATT against CACYBP	inactive: -0.33

Sequence	median seed-adjusted z-score
GGAACACGCAUGUCUGGAATT against NOS1	inactive: 0.0195
GCACUGGGACCAUACCAAATT against IL11RA	inactive: -0.708
GCAAUACCCUAGAGAAGGATT against SMAP2	inactive: -0.0114
GCAGAUUGUUUUACAAGGATT against ZNF143	inactive: -0.357
GCAAGGCGGUGUUCUCCAUTT against MRGPRF	inactive: -0.654
GGAAAACGGAAAGAUCAAATT against APOD	inactive: -0.115
CCAAUGCAGUGAUUACCGUTT against HSPA1L	active: -1.27
CAGUUCCACUCAUUCAAGATT against GPT	inactive: -0.00224
GUAGCUAACAUGAAAGAGATT against SIX4	inactive: 0.0462
GCAUUUCUUGAGUUCGAUATT against CABP5	inactive: 0.372
CAAGAAAACCAGAAUGGAATT against SERPING1	inactive: -0.244
CCAAGUUGCCUAUACAGUUTT against SLC22A2	inactive: -0.0161
GAAAACCGCAGAUAAAGUATT against NFRKB	inactive: 0.787
CAAUCCUGCUGACAUCCUATT against SLC5A2	inactive: -0.0782
GGGUUUUUAGAAUCUUCAATT against KCNA1	inactive: -0.277
CUAUACGAGUUUUAAUGAATT against HTR1E	inactive: 0.00535
GGACUUAAAGGGUCAGUUATT against KIFC1	inactive: 0.0417
GGAUAGAUUUCAAUACCAUTT against GLIS3	inactive: -0.00906
GGACAUGAACCAUACGAAUTT against PRPF8	active: -1.54
GCAGAUACACUCAAAGUAATT against DDX27	inactive: -0.131
GGCACAUCAUUAACAUCAATT against DHRS11	inactive: -0.476
GCUCAUUGAGACUACAUCATT against EIF2AK1	inactive: -0.546

Sequence	median seed-adjusted z-score
GGAUGUCACUGUUUCUGGATT against CLIC6	inactive: -0.00828
CAUCCCUUGUAAUUCACAATT against ZNF702	inactive: 0.204
GCUCCACAUUUGUUAGACATT against ZNF548	inactive: -0.508
CACAAUGAGUUAACUGAUATT against LILRB4	inactive: -0.104
GGCCGUUUGUCAUUCCCUUTT against CBFA2T3	inactive: -0.135
GGAUCUGCAUCGUCAUCGATT against TNS3	inactive: 0.18
CGAACGUAUGGGUGAAGCATT against CHRNA4	inactive: 0.174
CACCCAAAAAGAUGACAGATT against PSMD8	inactive: 0.0952
GAGCAUUGCUCAUCUCUUUTT against TRUB1	inactive: 0.561
GGCUACAUUCAGAACUACATT against PPAP2B	inactive: 0
CGUACAUUCCAUCAAGUAATT against CDON	inactive: 0.777
AGAGUGACCUGAUUGAGCATT against CSNK2B	active: -1.62
UGCUGAUCGUGGGAGAAAATT against AQP9	inactive: -0.192
GACUGCUACUUCCCUUUUATT against FARS2	inactive: 0.587
GAUCUGAUGCCGGAAUAUATT against ERMAP	inactive: -0.276
UGAACUUGAUGAAGGAGAATT against S100A7L2	inactive: 0.283
GCAGUUUCGAAAUCAACGATT against TEX14	inactive: -0.107
CUAUGACCCUUACCCGUAUTT against FMOD	active: -1.32
GCAACCCGAAGACAGGGAATT against ZNF226	inactive: 0.437
CUACCAGGCUUAAUAGGAATT against GFM2	inactive: 0.26
CCGGCUUAAUGUUGAUGGATT against PIP4K2A	inactive: 0.469
GGUAUUAACUGGUCAGUAUTT against SLC17A4	inactive: 0.262

Sequence	median seed-adjusted z-score
CUACAACUAUUGUGCCUAUTT against ETV5	inactive: 0.0756
GCACCAAGGCGAUUGUUCATT against ATP6V1B1	inactive: 0.38
ACACCCAGAUUAUGCUUUUTT against SPAG16	inactive: -0.0252
GCAUUUCACCAUUCAAACATT against PCSK9	inactive: 0.146
GCUGUGCGUUCUUCACAAATT against RAB17	inactive: 0.473
GGAUGUUAUCGCUAUUGAATT against GPRC5A	inactive: -0.56
GGAUAUGAGUUUACUGGGATT against IL20RA	inactive: -0.646
GGUGGUCGCUAGGUAUGAATT against WNT5A	inactive: 0.651
GGCUAUUUCUACGAAAGUUTT against CDC7	inactive: -0.236
UAUCAAGAAUGGAACUGAATT against NSDHL	inactive: 0.716
GACUCAUCUUUAUACCCUUTT against CLGN	inactive: 0.18
GCAUCAAGAUCAAUCGAGUTT against LNX1	inactive: -0.463
AGUACAACCUUGCUGUGAATT against ELA3A	inactive: -0.0465
CCAGCAUCCUGACCAUCCATT against FLT4	inactive: -0.861
GAAUCGAGUUGAAAUCAAUTT against SPOP	inactive: 0.000304
GCAUUAGUCUGACAGUACATT against MRGPRX3	inactive: -0.175
GAGAGGAUCUGACGAACUATT against PTBP2	inactive: 0.138
GCCUGUAUGUUUAUAACAATT against DRG2	inactive: -0.175
CAAGCUAUACUUGACCUUATT against PCBD2	inactive: -0.0549

Pulled one by one from above, four records:
Sequence	median seed-adjusted z-score
CCGCAGCUGCUAUAAGAGATT against SLC9A10	inactive: -0.0418
GAAACUUUCAUUACGUAUATT against SNX7	inactive: 0.146
GCACCUUCACGUUUCGAAATT against GMPR	inactive: 0.0757
CAGAAUCAGCUGGAAGAAATT against BAIAP2	inactive: -0.0497
